Assay results as given in the supplement of paper PMC3682954.
Counter-ions that a name gives are not always drawn. ± gives the standard deviation of the averaged measurements. The list shows a part of the results. Many values rest on one well or one pass, so single values are uncertain.

System: RAW 264.7
Test: HMGB1-induced TNF-alpha production relative to HMGB1-stimulated control; higher = more TNF-alpha secretion (less inhibition)
Conditions: stimulus: HMGB1 5 ug/ml, 18 h
[1] = compound concentration: 1 ug/ml

| Structure (SMILES) | HMGB1-induced TNF-alpha production [1] | HMGB1-induced TNF-alpha production (compound concentration: 3 uM) |
| --- | --- | --- |
| C=C(C)[C@@H]1CC=C(C(=O)O)CC1 [(S)-(-)-Perillic acid] | 87.1% | – |
| C=C(C)[C@@H]1CC=C(C(=O)O)CC1 [(-)-Perillic acid] | – | 109% |
| C=C(C)[C@@H]1CC=C(C(=O)O)CC1 | – | 90.5% |
| Oc1c2ccccc2c2c3c(cccc13)N=N2 | – | 99.9% |
| O=C1CCc2cc(OCCCCc3nnnn3C3CCCCC3)ccc2N1 [Cilostazol] | – | 97.7 ± 22% |
| O=C1CCc2cc(OCCCCc3nnnn3C3CCCCC3)ccc2N1 | – | 105% |
| CCS(=O)(=O)CCn1c([N+](=O)[O-])cnc1C | – | 92.7 ± 11% |
| CCS(=O)(=O)CCn1c([N+](=O)[O-])cnc1C [Tinidazole] | – | 103 ± 16% |
| COc1cc(OC)c2c(c1)OC(c1ccccc1)CC2=O (stereo not drawn) [5,7-Dimethoxyflavanone] | 67.9% | – |
| CCCCOc1cc(C(=O)NCCN(CC)CC)c2ccccc2n1 | – | 76.6% |
| CCCCOc1cc(C(=O)NCCN(CC)CC)c2ccccc2n1 [Dibucaine] | – | 89.5% |
| O=C(O)[C@H]1C[C@H](C(=O)O)N1 (relative stereo) [trans-Azetidine-2,4-dicarboxylic acid] | – | 91.9% |
| CC[C@H]1OC(=O)[C@H](C)C(=O)[C@H](C)[C@@H](O[C@@H]2O[C@H](C)C[C@H](N(C)C)[C@H]2O)[C@](C)(OC)C[C@@H](C)C(=O)[C@H](C)[C@H]2N(CCCCn3cnc(-c4cccnc4)c3)C(=O)O[C@]12C | – | 98.4 ± 3.9% |
| O=P(O)(O)C(Cl)(Cl)P(=O)(O)O [Clodronic acid] | – | 104% |
| O=P(O)(O)C(Cl)(Cl)P(=O)(O)O [Clodronate] | – | 103 ± 9.3% |
| CCC1=C(C)CN(C(=O)NCCc2ccc(S(=O)(=O)NC(=O)N[C@H]3CC[C@H](C)CC3)cc2)C1=O | – | 90.4% |
| CCC1=C(C)CN(C(=O)NCCc2ccc(S(=O)(=O)NC(=O)N[C@H]3CC[C@H](C)CC3)cc2)C1=O [Glimepiride] | – | 98.2 ± 2.4% |
| CCCCn1c(=O)c2c(ncn2CC(C)=O)n(CCCC)c1=O [Denbufylline] | – | 59.7% |
| COc1ccc2cc1Oc1ccc(cc1)C[C@H]1c3cc(c(OC)cc3CCN1C)Oc1c(OC)c(OC)cc3c1[C@H](C2)N(C)CC3 | – | 87.4% |
| COc1ccc2cc1Oc1ccc(cc1)C[C@H]1c3cc(c(OC)cc3CCN1C)Oc1c(OC)c(OC)cc3c1[C@H](C2)N(C)CC3 [(S,S)-(+)-Tetrandrine] | 87.8% | – |
| CN1CCC(OC(c2ccccc2)c2ccccc2)CC1 [Diphenylpyraline hydrochloride] | – | 99.2% |
| CN1CCC(OC(c2ccccc2)c2ccccc2)CC1 | – | 93% |

| Structure (SMILES) | HMGB1-induced TNF-alpha production [1] | HMGB1-induced TNF-alpha production (compound concentration: 3 uM) |
| --- | --- | --- |
| O=C(Oc1cccc2cccnc12)c1ccccc1 | – | 73% |
| C/C=C1\[C@H]2C=C(C)C[C@]1(N)c1ccc(=O)[nH]c1C2 | – | 98.6% |
| C[N+](C)(C)CCO.[Cl-] | – | 78.9% |
| Nc1ccc2c3c(cccc13)C(=O)NC2=O [4-Amino-1,8-naphthalimide] | – | 94.3% |
| Clc1ccc(Nc2nnc(Cc3ccncc3)c3ccccc23)cc1 [Vatalanib] | – | 87.3 ± 2.2% |
| Cc1cc(O)c2c(c1)C(=O)c1cc(O)cc(O)c1C2=O [Emodin] | 57.5% | 98% |
| OCC1OC(Oc2ccc3c(c2)OC[C@H]2c4cc5c(cc4O[C@@H]32)OCO5)C(O)C(O)C1O (stereo partly drawn) | 75.5% | – |
| CN(C/C=C/C#CC(C)(C)C)Cc1cccc2ccccc12 [Terbinafine] | – | 70.6% |
| O=c1[nH]cnc2c1ncn2[C@H]1CC[C@@H](CO)O1 | – | 98.3% |
| O=c1[nH]cnc2c1ncn2[C@H]1CC[C@@H](CO)O1 [Didanosine] | – | 91.2 ± 14% |
| Nc1nc(O)c2ncn(CCC(CO)CO)c2n1 [Penciclovir] | – | 99.4 ± 23% |
| Nc1nc(O)c2ncn(CCC(CO)CO)c2n1 | – | 105% |
| Fc1ccc([C@@H]2CCNC[C@H]2COc2ccc3c(c2)OCO3)cc1 [Paroxetine hydrochloride hemihydrate (MW = 374.83)] | – | 79.3% |
| Fc1ccc([C@@H]2CCNC[C@H]2COc2ccc3c(c2)OCO3)cc1 [Paroxetine] | – | 90.4 ± 15% |
| Fc1ccc([C@@H]2CCNC[C@H]2COc2ccc3c(c2)OCO3)cc1 | – | 69.3% |
| Fc1ccc([C@@H]2CCNC[C@H]2COc2ccc3c(c2)OCO3)cc1 [Paroxetine Hydrochloride] | – | 117% |
| NC(CO)C(=O)NNCc1ccc(O)c(O)c1O (stereo not drawn) [Benserazide hydrochloride] | – | 107 ± 11% |
| NC(CO)C(=O)NNCc1ccc(O)c(O)c1O (stereo not drawn) | – | 74.9% |
| NC(CO)C(=O)NNCc1ccc(O)c(O)c1O (stereo not drawn) [Benserazide] | – | 117% |
| C[C@H]1COc2c(N3CCN(C)CC3)c(F)cc3c(=O)c(C(=O)O)cn1c23 [Levofloxacin] | – | 110% |
| C[C@H]1COc2c(N3CCN(C)CC3)c(F)cc3c(=O)c(C(=O)O)cn1c23 | – | 96.2 ± 11% |
| Cc1cccc(C(=O)NCN2CCN(c3ccccc3C#N)CC2)c1 [PD 168,077 maleate] | – | 106% |

7 entries from above, with tabs.
Structure (SMILES)	HMGB1-induced TNF-alpha production [1]	HMGB1-induced TNF-alpha production (compound concentration: 3 uM)
C[N+](C)(C)CCO.[Cl-]	–	78.9%
Nc1ccc2c3c(cccc13)C(=O)NC2=O [4-Amino-1,8-naphthalimide]	–	94.3%
Clc1ccc(Nc2nnc(Cc3ccncc3)c3ccccc23)cc1 [Vatalanib]	–	87.3 ± 2.2%
Cc1cc(O)c2c(c1)C(=O)c1cc(O)cc(O)c1C2=O [Emodin]	57.5%	98%
OCC1OC(Oc2ccc3c(c2)OC[C@H]2c4cc5c(cc4O[C@@H]32)OCO5)C(O)C(O)C1O (stereo partly drawn)	75.5%	–
CN(C/C=C/C#CC(C)(C)C)Cc1cccc2ccccc12 [Terbinafine]	–	70.6%
O=c1[nH]cnc2c1ncn2[C@H]1CC[C@@H](CO)O1	–	98.3%

Further entries follow:

| Structure (SMILES) | HMGB1-induced TNF-alpha production [1] | HMGB1-induced TNF-alpha production (compound concentration: 3 uM) |
| --- | --- | --- |
| CN(C)CCCN1c2ccccc2CCc2ccccc21 [Imipramine] | – | 88% |
| CN(C)CCCN1c2ccccc2CCc2ccccc21 | – | 79.8% |
| CN(C)CCCN1c2ccccc2CCc2ccccc21 [Imipramine hydrochloride] | – | 84.8 ± 7.4% |
| NCCC[C@H](N)CC(=O)N[C@H]1CNC(=O)[C@H]([C@H]2C[C@H](O)NC(N)=N2)NC(=O)/C(=C/NC(N)=O)NC(=O)[C@H](CO)NC(=O)[C@H](CO)NC1=O [Viomycin sulfate] | – | 121% |
| O=C1c2cccc3c2[C@H](CCC3)CN1[C@@H]1CN2CCC1CC2 | – | 98.8% |
| NCC[C@H](O)C(=O)N[C@@H]1C[C@H](N)[C@@H](O[C@H]2O[C@H](CN)[C@@H](O)[C@H](O)[C@H]2O)[C@H](O)[C@H]1O[C@H]1O[C@H](CO)[C@@H](O)[C@H](N)[C@H]1O | – | 84.5% |
| NCC[C@H](O)C(=O)N[C@@H]1C[C@H](N)[C@@H](O[C@H]2O[C@H](CN)[C@@H](O)[C@H](O)[C@H]2O)[C@H](O)[C@H]1O[C@H]1O[C@H](CO)[C@@H](O)[C@H](N)[C@H]1O [Amikacin hydrate] | – | 80.5% |
| CC1CC2(C)Oc3ccccc3C3OCC1(COC(=O)Nc1ccccc1)C(C)C32 (stereo not drawn) | 53.5% | – |
| O=C1C(SCCO)=C(SCCO)C(=O)c2ccccc21 | – | 12.7% |
| COc1cc(/C=C/C(=O)CC(=O)/C=C/c2ccc(O)c(OC)c2)ccc1O [Curcumine] | 61.7% | – |
| Cc1cc2nc3c(=O)[nH]c(=O)nc-3n(CC(O)C(O)C(O)COP(=O)(O)O)c2cc1C (stereo not drawn) | – | 87.1% |
| CC(=O)OCC[N+](C)(C)C | – | 87.2% |
| CC(=O)OCC[N+](C)(C)C [Acetylcholine] | – | 112% |
| CC1(C)CCC2=C(O1)c1ccccc1C(=O)C2=O [beta-Lapachone] | – | 90.4% |
| OCCN1C[C@H](O)[C@@H](O)[C@H](O)[C@H]1CO [Miglitol] | – | 62.5% |
| OCCN1C[C@H](O)[C@@H](O)[C@H](O)[C@H]1CO | – | 94.3 ± 1.1% |
| O=c1cc(O)ccn1[C@@H]1O[C@H](CO)[C@@H](O)[C@H]1O [3-Deazauridine] | 65.3% | – |
| COc1cc2c(cc1OC)-c1c(OC)c(OC)cc3ccnc(c13)C2=O [Oxoglaucine] | 68.2% | – |
| Cn1cnc([N+](=O)[O-])c1Sc1ncnc2[nH]cnc12 [Azathioprine] | – | 76.5 ± 8.8% |
| Cn1cnc([N+](=O)[O-])c1Sc1ncnc2[nH]cnc12 | – | 69.6 ± 14% |
| CC(C)C(=O)Nc1ccc([N+](=O)[O-])c(C(F)(F)F)c1 [Flutamide] | – | 88.2 ± 17% |
| CC(C)C(=O)Nc1ccc([N+](=O)[O-])c(C(F)(F)F)c1 | – | 90% |

| Structure (SMILES) | HMGB1-induced TNF-alpha production [1] | HMGB1-induced TNF-alpha production (compound concentration: 3 uM) |
| --- | --- | --- |
| O=C(O)CCCC[C@@H]1SC[C@@H]2NC(=O)N[C@@H]21 [Biotin] | 82.2% | 80.5% |
| O=C(O)CCCC[C@@H]1SC[C@@H]2NC(=O)N[C@@H]21 | – | 98.9% |
| COc1cn([C@@H]2O[C@H](CO)[C@@H](O)[C@H]2O)c(=O)[nH]c1=O [5-Methoxyuridine] | 83.2% | – |
| CCOC(=O)Nc1ccc(NCc2ccc(F)cc2)nc1N [Flupirtine maleate] | – | 90.5% |
| O=C[C@H](O)[C@@H](O)[C@H](O)[C@H](O)CO[C@@H]1O[C@H](CO)[C@@H](O)[C@H](O)[C@H]1O [Gentiobiose] | 77.6% | – |
| C[C@@]1(O)CCOC(=O)C1 [Mevalonic-D, L acid lactone] | – | 96.4% |
| COCC(=O)Nc1c(I)c(C(=O)NCC(O)CO)c(I)c(C(=O)N(C)CC(O)CO)c1I (stereo not drawn) [Iopromide] | – | 127% |
| N[C@@H](CSSC[C@H](N)C(=O)O)C(=O)O | – | 59.6% |
| CC1COc2c(N3CCN(C)CC3)c(F)cc3c(=O)c(C(=O)O)cn1c23 (stereo not drawn) [Ofloxacin] | – | 101 ± 15% |
| CC1COc2c(N3CCN(C)CC3)c(F)cc3c(=O)c(C(=O)O)cn1c23 (stereo not drawn) | – | 82.2% |
| O=C(O)/C=C/c1cnc[nH]1 [Urocanic acid] | 88.4% | – |
| O=C(O)/C=C/c1cnc[nH]1 [4-Imidazoleacrylic acid] | – | 112% |
| C[C@H](CCC(=O)O)[C@H]1CC[C@H]2[C@@H]3CC[C@@H]4C[C@H](O)CC[C@]4(C)[C@H]3CC[C@]12C [Lithocholic acid] | 77.6% | 98.8% |
| CC(=O)SCC(Cc1ccccc1)C(=O)NCC(=O)OCc1ccccc1 (stereo not drawn) [Racecadotril] | – | 94.6 ± 22% |
| CC(=O)SCC(Cc1ccccc1)C(=O)NCC(=O)OCc1ccccc1 (stereo not drawn) | – | 99.6% |
| CC(C)(C)OC(=O)N[C@@H](Cc1cnc[nH]1)C(=O)O [N-alpha-(tert-Butoxycarbonyl)-L-histidine] | 65.3% | – |
| COC(=O)C1=C(C)NC(C)=C(C(=O)OC(C)C)C1c1cccc2nonc12 (stereo not drawn) | – | 108% |
| COC(=O)C1=C(C)NC(C)=C(C(=O)OC(C)C)C1c1cccc2nonc12 (stereo not drawn) [Isradipine] | – | 82.4% |
| Cc1cn(C2CC(O)C(COP(=O)(O)OP(=O)(O)OP(=O)(O)O)O2)c(=O)[nH]c1=O (stereo not drawn) [Thymidine 5'-triphosphate sodium salt] | 81.1% | – |
